These results are taken from patent US20090274682A1.

Chains of the proteins cited; added tags and fusions are not shown. Lines headed by an entry give the natural chain unless they say otherwise; changes in a name come on top.
UniProt P30153: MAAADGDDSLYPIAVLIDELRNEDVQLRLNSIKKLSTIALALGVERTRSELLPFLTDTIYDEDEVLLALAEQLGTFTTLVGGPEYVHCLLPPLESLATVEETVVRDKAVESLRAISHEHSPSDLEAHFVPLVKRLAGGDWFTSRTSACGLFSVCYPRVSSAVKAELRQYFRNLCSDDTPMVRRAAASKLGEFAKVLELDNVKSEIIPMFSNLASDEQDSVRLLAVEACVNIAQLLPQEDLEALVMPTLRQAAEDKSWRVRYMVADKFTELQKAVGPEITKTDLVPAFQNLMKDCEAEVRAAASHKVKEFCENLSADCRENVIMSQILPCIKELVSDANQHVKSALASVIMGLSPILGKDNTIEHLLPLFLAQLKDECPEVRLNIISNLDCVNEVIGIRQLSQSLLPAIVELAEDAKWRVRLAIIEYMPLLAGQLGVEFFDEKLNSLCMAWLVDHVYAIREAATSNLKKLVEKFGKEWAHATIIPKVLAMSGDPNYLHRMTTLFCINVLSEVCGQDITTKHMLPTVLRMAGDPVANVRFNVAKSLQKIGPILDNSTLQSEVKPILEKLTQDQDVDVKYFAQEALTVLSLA

No constants are given. Whether binding was seen depends on the method and setting. Some results given as binding are weak or reduced against the parent protein; the word gives no strength.

The target of the assay is PP2A core enzyme (AC heterodimer) involving the full-length A subunit (human) (UniProt P30153). Put plainly: complex fractionated by size exclusion chromatography (FIG. 10). (In general: In gel filtration, larger molecules generally elute earlier.)

B1: PME-1 M335D (enzyme)
chain: MSALEKSMHLGRLPSRPPLPGSGGSQSGAKMRMGPGRKRDFSPVPWSQYFESMEDVEVENETGKDTFRVYKSGSEGPVLLLLHGGGHSALSWAVFTAAIISRVQCRIVALDLRSHGETKVKNPEDLSAETMAKDVGNVVEAMYGDLPPPIMLIGHSMGGAIAVHTASSNLVPSLLGLCMIDVVEGTAMDALNSMQNFLRGRPKTFKSLENAIEWSVKSGQIRNLESARVSMVGQVKQCEGITSPEGSKSIVEGIIEEEEEDEEGSESISKRKKEDDMETKKDHPYTWRIELAKTEKYWDGWFRGLSNLFLSCPIPKLLLLAGVDRLDKDLTIGQDQGKFQMQVLPQCGHAVHEDAPDKVAEAVATFLIRHRFAEPIGGFQCVFPGC
Take B1: the binding result is given as “binds”.
